Data reported in PubChem BioAssay AID651702 (NMMLSC, 2012).
In all, about 360,000 compounds went through this assay and about 2,400 (0.67%) were called active. The inconclusive results got no clear call from the source; some entries with a clear call stand among them for comparison.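 The calls were made as follows: active = inhibition above about 55% (limit read from the data); inconclusive = no clear call, values can overlap the other calls; inactive = the rest.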

Assay: LAMP-1 surface exposure blockers, TALL-104 cells – cell-based, flow cytometry, MLPCN library, primary screen (AID 651702)
Conditions: TALL-104 LAMP-1 surface exposure, cells stimulated with thapsigargin and PMA; at 10 µM, stronger effect = higher value

inhibition, inconclusive:
O=C(CN(c1ccccn1)S(=O)(=O)c1ccc(F)cc1)Nc1ccccc1
COc1ccc(CNS(=O)(=O)c2cc(Br)cc3c2N(C(C)=O)C(C)C3)cc1 (stereo not drawn)
COc1ccc(N2CCN(C(=O)COCc3cc(-c4ccc5c(c4)OCO5)on3)CC2)cc1
O=C(Nc1ccc(Nc2ccccc2)cc1)C(Cl)Cl
O=C1CC(c2ccccc2)CC(O)=C1C=Nc1ccccc1Cl (stereo not drawn)
O=C(CN(Cc1ccc(F)cc1)C(=O)CNS(=O)(=O)c1ccccc1)NCC1CCCO1 (stereo not drawn)
CS(=O)(=O)N(CC(=O)NCCSC1CCCCC1)c1cccc(F)c1
CC(C)NC(=O)[C@@H]1CSC2c3ccccc3C(=O)N21 (stereo partly drawn)
CCc1n[nH]c(=S)n1/N=C/c1cc(OC)cc([N+](=O)[O-])c1O
Cc1ccc(C2(C)NC(=O)N(CC(=O)N3CCN(S(=O)(=O)c4cccc(F)c4)CC3)C2=O)cc1 (stereo not drawn)
COc1ccc(CCNC(=O)c2ccc(NS(=O)(=O)c3ccc4[nH]c(=O)[nH]c4c3)cc2)cc1OC
COC(=O)c1ccc(CSc2nnc(CS(=O)Cc3ccc(Br)cc3)n2-c2ccccc2)cc1 (stereo not drawn)
O=C1N(CC(=O)N2CCc3ccccc32)CCN1Cc1ccc(Cl)cc1
Cc1nn(-c2ccccc2)c(C)c1/C=N/NC(=O)c1ccccc1O
CCn1nc(C)c(/C=N/NC(=O)c2ccoc2C)c1C
O=C(CN1C(=O)CCSc2ccc(S(=O)(=O)N3CCOCC3)cc21)Nc1ccccc1Cl
O=C(NCC(=O)N(c1ccc(F)cc1)C(C(=O)NC1CCCC1)c1ccncc1)c1ccco1 (stereo not drawn)
COc1ccc(N2CC(C)Cn3c2nc2c3c(=O)n(Cc3ccccc3)c(=O)n2C)c(OC)c1 (stereo not drawn)
O=C(CN(Cc1cccs1)C(=O)CNS(=O)(=O)c1ccc(F)cc1)NCc1ccco1
COc1ccc(C2CCCN2C(=S)Nc2ccc(C)cc2C)cc1OC (stereo not drawn)
O=C(N/N=C/c1c[nH]c2ccc(Br)cc12)c1ccncc1
O=C1c2ccccc2NC(c2ccc(O)cc2)N1c1ccccc1 (stereo not drawn)
COc1ccccc1CNc1nc(Nc2cccc(-c3cnco3)c2)c2sccc2n1
COc1ccc(C2=NOC(C(=O)Nc3cccc(O)c3)C2)cc1 (stereo not drawn)
CC(C)(C)C(=O)/C(=C/c1cccc([N+](=O)[O-])c1)n1cncn1
O=C1Nc2ccccc2C1=Nc1ccc(S(=O)(=O)Nc2nccs2)cc1
CCc1ccc(OC(C)C(=O)Nc2ccc(S(=O)(=O)Nc3cc(C)on3)cc2)cc1 (stereo not drawn)
CC(C)NC(=O)/C(=C/c1ccco1)c1ccccc1
N#Cc1ccc(OCC(=O)NCCc2ccccn2)cc1
CCN(C(=O)c1cccc(S(=O)(=O)N(C)C)c1)C12CC3CC(CC(C3)C1)C2
O=S(=O)(Nc1ccncc1)c1ccc(Cl)c(Cl)c1
Cc1ccc(-n2ncc3c(SCC(=O)NNC(=O)C(C)C)ncnc32)cc1
O=C(CSc1nnc(CCCN2C(=O)c3cccc4cccc(c34)C2=O)n1-c1ccccc1)NCCCO
Cc1ccc2c(c1)C1CN(C)CCC1N2C(=O)COc1ccccc1F (stereo not drawn)
CC(C)=C1C2CCC1C1C(=O)N(NC(=O)c3ccco3)C(=O)C21 (stereo not drawn)
COc1ccc(-n2c(SCC(=O)Nc3ccc(C(N)=O)cc3)nc3c([nH]c4ccccc43)c2=O)cc1OC
COc1ccc(CNC(=O)C2CCC(CNC(=O)[C@@H]3Cc4ccccc4CN3)CC2)cc1 (stereo partly drawn)
Cc1ccccc1N(C(=O)c1csnn1)C(C(=O)NC1CCCC1)c1ccncc1 (stereo not drawn)
COC(=O)Cc1c(O)ccn(Cc2ccc(F)cc2)c1=O
COc1cccc(Oc2c(C)oc3c(CN4CCCCC4)c(O)ccc3c2=O)c1
CCOC(=O)c1c(/N=C/c2ccc(C)cc2O)sc2c1CCC2
COc1ccc(CNC(=O)c2ccc(CS(=O)Cc3cccc(Cl)c3)o2)cc1 (stereo not drawn)
CCc1cc2cc3c(cc2nc1SCC(=O)N1CCN(C(=O)c2ccco2)CC1)OCO3
Cc1nn(-c2ccccn2)c2c1C(=O)CC(C)(C)C2Br (stereo not drawn)
C#CC(CC)(CC)NC(=S)Nc1ccc(S(N)(=O)=O)cc1
COc1ccc(CN(C)C(=O)C23CC4CC(CC(C4)C2)C3)c(OC)c1
O=C(c1ccccc1)C1N=NCC1c1ccc(Cl)cc1 (stereo not drawn)
CCOC(=O)c1c(-c2ccc(F)cc2)csc1NC(=O)CN1C(=O)NC2(CCCCC2C)C1=O (stereo not drawn)
COc1ccc(CC2C(=O)OC(C)(C)OC2=O)cc1
O=C(CCCC(=O)N1CCN(c2ccc([N+](=O)[O-])cc2)CC1)c1ccccc1

inhibition, inactive:
NS(=O)(=O)c1ccc(NC(=S)NCc2ccccc2)cc1 0.7%
O=C1c2ccccc2C(Nc2ccc(-c3nc4ccccc4[nH]3)cc2)N1Cc1ccco1 (stereo not drawn) -6.4%
COc1ccc(CCNC(=O)Cc2ccc([N+](=O)[O-])cc2)cc1OC -9.7%
COc1ccc(Cc2nc3ccc(C(=O)NC(C)c4cn(C)nc4C)cc3o2)cc1 (stereo not drawn) -1.4%
CNC(=O)c1cc(C(=O)c2c(Cl)cccc2Cl)c[nH]1 -3%
CCOC(=O)C1=NN(C(=O)c2ccc(C)cc2)C(O)(c2ccc(Cl)cc2)C1 (stereo not drawn) 0.9%
CCCc1cc(=O)oc2c(C)c(OC(C)C(=O)NCc3ccccn3)ccc12 (stereo not drawn) -4.1%
Cc1ccccc1Oc1nc(-c2ccccn2)nc2ccccc12 -2.6%
Cc1ccc2c(c1)c1c(n2CC(O)CNC(CO)(CO)CO)CCCC1 (stereo not drawn) 0.1%
CC(C)CNS(=O)(=O)c1ccc(CCC(=O)NCc2cccnc2)cc1 1.4%
Cc1cnc(C(=O)OCc2ccc(Br)cc2)cn1 -15.9%
O=C(Nc1ccc(Cl)cc1)C1C2C=CC3(O2)C1C(=O)N(CCN1CCCCC1)C3C(=O)NC1CCCCC1 (stereo not drawn) 19%
CO[C@@H]1O[C@@H]2COC(c3ccccc3)O[C@@H]2[C@@H](OC)[C@@H]1O (stereo partly drawn) -0.6%
CCOC(=O)[C@H]1[C@H]2COc3ccc(Br)cc3[C@H]2N2C(=O)CN(CCc3c[nH]c4ccccc34)C(=O)[C@@]12C -5.7%
C=CCSc1nnc(NC(=O)c2ccc(N3CCCC3=O)cc2)s1 1.6%
Cc1sc(NC(=O)c2sc3nc4c(C)cccc4cc3c2N)c(C#N)c1C 3.4%
CCCN1Cc2cccc(C(=O)Nc3ccc(CC)cc3)c2C1=O -0.6%
CC1=CC(=O)C(Sc2ccc(C)cc2)=CC1=O -3.1%
CCOc1ccc(C2CC(c3c(O)c4ccccc4oc3=O)=NN2c2ccccc2)cc1OC (stereo not drawn) -5.3%
COc1ccc(-c2nn(-c3ccccc3)cc2C(=O)NC2CCCCC2C)cc1 (stereo not drawn) -0.4%
CCCOC(=O)CSc1nc(N)c(C#N)c(-c2ccco2)c1C#N 2.9%
CC(=O)Nc1ccc(-c2ccnc3c2CC(C(=O)NCCC(F)(F)F)O3)cc1 (stereo not drawn) 11.6%
Cc1ccccc1NC(=O)CSc1nnc(-c2ccccc2)n1-c1ccccc1 -2.3%
COCCn1c(SCC(=O)c2ccc3c(c2)OCCO3)nnc1C(C)C -2%
Cc1ccnc(NC(=O)C(C)n2cc([N+](=O)[O-])cn2)c1 (stereo not drawn) 5.5%
O=C(COC(=O)c1nc(Cl)ccc1Cl)c1ccc(Cl)s1 2.6%
CCc1nnc(NC(=O)CSc2ccc(-c3ccc(-n4cccn4)cc3)nn2)s1 -4.1%
CCCN(CCC)C(=O)Cn1c(=O)c2ccccc2n2c(=S)sc(-c3ccccc3C)c12 -1.3%
CC(C)COC(=O)N(C)C[C@H]1OCc2cnnn2CCCC(=O)N([C@H](C)CO)C[C@@H]1C -2%
CC(OC(=O)c1cc2sccc2n1C)C(=O)NCCc1ccccc1 (stereo not drawn) 1.9%
FC(F)(F)Oc1ccc(NC(=S)Nc2ccc(OC(F)(F)F)cc2)cc1 -6.7%
COc1cc(-c2cc(C(=O)Nc3ccc(O)cc3)c3ccccc3n2)cc(OC)c1OC 1.7%
CCc1ccccc1CC1CN(Cc2ccccc2)Cc2ccccc2N1c1ccc(OC)cc1 (stereo not drawn) 0.5%
CCN(CC(=O)Nc1ccc(NC(C)=O)cc1)C(=O)c1cccc(S(=O)(=O)N2CCCC2)c1 -5.5%
CCC(C)c1ccc2oc(-c3ccc(NC(=O)Cn4cnc5c(=O)n(C)c(=O)n(C)c54)cc3)nc2c1 (stereo not drawn) 11.9%

Sorted by molar mass (falling): some entries from above
inhibition, inactive:
CCC(C)c1ccc2oc(-c3ccc(NC(=O)Cn4cnc5c(=O)n(C)c(=O)n(C)c54)cc3)nc2c1 (stereo not drawn) 11.9%
CCc1ccccc1CC1CN(Cc2ccccc2)Cc2ccccc2N1c1ccc(OC)cc1 (stereo not drawn) 0.5%
COc1cc(-c2cc(C(=O)Nc3ccc(O)cc3)c3ccccc3n2)cc(OC)c1OC 1.7%
NS(=O)(=O)c1ccc(NC(=S)NCc2ccccc2)cc1 0.7%

Following part.

inhibition, active:
Cc1cc(N2CCN(c3ncccn3)CC2)nc2c(C)cccc12 71.8%
COc1ccc(S(=O)(=O)/N=C2\C=C(Nc3ccc(O)cc3)C(=O)c3ccccc32)cc1 68.5%
CC(C)(C)C(=O)NC(=O)Nc1ccccc1C(F)(F)F 109%
NC(=S)NNc1ccc(Cl)c(Cl)c1 68.4%
Cc1ccc(Br)cc1S(=O)(=O)N1CCN(c2ccccc2)CC1 66.3%
COc1ccc(-c2nc3ccc(C)cn3c2NCc2ccccc2)cc1SC1CCCCC1 65.2%
Cc1cc(OC(C)C(=O)N2CCN(c3ccc(F)cc3)CC2)c2c(C)c(C)c(=O)oc2c1 (stereo not drawn) 64.1%
Cc1ccc(Nc2nc(NCc3ccco3)c3ccccc3n2)cc1 69.3%
